Results as given in PMC12448893.

Sequences of proteins named here, by UniProt entry; tags and fusion partners are left off.
UniProt Q13547: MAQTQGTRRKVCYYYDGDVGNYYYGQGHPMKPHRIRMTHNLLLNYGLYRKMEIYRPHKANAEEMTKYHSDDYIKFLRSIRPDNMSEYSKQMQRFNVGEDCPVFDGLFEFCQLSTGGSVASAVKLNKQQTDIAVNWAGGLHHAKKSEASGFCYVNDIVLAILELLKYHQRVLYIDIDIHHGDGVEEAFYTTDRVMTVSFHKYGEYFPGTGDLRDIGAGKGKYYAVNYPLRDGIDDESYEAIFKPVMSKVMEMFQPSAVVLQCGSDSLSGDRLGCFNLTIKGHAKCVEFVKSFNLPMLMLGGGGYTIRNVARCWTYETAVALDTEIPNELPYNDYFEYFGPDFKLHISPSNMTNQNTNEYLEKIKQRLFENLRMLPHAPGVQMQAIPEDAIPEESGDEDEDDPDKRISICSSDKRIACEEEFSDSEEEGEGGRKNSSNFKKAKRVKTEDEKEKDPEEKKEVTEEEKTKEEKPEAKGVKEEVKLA
UniProt Q8K4B0: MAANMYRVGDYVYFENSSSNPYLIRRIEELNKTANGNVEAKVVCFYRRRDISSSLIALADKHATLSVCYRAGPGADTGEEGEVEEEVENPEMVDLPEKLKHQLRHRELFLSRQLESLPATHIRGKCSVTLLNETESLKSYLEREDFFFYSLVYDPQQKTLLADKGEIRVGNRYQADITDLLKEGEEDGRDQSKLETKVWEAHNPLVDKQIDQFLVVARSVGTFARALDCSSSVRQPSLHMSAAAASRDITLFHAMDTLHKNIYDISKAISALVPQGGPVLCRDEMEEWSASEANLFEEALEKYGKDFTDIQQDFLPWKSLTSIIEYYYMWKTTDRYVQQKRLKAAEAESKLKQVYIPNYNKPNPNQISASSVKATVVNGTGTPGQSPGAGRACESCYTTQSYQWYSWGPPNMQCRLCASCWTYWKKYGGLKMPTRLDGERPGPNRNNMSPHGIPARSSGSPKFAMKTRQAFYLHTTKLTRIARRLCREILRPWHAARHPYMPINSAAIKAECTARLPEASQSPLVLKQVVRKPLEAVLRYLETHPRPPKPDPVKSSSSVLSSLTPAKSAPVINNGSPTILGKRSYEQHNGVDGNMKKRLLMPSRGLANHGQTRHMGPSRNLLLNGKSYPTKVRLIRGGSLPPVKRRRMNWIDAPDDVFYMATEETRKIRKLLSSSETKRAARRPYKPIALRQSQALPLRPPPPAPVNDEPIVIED
UniProt Q3URK3: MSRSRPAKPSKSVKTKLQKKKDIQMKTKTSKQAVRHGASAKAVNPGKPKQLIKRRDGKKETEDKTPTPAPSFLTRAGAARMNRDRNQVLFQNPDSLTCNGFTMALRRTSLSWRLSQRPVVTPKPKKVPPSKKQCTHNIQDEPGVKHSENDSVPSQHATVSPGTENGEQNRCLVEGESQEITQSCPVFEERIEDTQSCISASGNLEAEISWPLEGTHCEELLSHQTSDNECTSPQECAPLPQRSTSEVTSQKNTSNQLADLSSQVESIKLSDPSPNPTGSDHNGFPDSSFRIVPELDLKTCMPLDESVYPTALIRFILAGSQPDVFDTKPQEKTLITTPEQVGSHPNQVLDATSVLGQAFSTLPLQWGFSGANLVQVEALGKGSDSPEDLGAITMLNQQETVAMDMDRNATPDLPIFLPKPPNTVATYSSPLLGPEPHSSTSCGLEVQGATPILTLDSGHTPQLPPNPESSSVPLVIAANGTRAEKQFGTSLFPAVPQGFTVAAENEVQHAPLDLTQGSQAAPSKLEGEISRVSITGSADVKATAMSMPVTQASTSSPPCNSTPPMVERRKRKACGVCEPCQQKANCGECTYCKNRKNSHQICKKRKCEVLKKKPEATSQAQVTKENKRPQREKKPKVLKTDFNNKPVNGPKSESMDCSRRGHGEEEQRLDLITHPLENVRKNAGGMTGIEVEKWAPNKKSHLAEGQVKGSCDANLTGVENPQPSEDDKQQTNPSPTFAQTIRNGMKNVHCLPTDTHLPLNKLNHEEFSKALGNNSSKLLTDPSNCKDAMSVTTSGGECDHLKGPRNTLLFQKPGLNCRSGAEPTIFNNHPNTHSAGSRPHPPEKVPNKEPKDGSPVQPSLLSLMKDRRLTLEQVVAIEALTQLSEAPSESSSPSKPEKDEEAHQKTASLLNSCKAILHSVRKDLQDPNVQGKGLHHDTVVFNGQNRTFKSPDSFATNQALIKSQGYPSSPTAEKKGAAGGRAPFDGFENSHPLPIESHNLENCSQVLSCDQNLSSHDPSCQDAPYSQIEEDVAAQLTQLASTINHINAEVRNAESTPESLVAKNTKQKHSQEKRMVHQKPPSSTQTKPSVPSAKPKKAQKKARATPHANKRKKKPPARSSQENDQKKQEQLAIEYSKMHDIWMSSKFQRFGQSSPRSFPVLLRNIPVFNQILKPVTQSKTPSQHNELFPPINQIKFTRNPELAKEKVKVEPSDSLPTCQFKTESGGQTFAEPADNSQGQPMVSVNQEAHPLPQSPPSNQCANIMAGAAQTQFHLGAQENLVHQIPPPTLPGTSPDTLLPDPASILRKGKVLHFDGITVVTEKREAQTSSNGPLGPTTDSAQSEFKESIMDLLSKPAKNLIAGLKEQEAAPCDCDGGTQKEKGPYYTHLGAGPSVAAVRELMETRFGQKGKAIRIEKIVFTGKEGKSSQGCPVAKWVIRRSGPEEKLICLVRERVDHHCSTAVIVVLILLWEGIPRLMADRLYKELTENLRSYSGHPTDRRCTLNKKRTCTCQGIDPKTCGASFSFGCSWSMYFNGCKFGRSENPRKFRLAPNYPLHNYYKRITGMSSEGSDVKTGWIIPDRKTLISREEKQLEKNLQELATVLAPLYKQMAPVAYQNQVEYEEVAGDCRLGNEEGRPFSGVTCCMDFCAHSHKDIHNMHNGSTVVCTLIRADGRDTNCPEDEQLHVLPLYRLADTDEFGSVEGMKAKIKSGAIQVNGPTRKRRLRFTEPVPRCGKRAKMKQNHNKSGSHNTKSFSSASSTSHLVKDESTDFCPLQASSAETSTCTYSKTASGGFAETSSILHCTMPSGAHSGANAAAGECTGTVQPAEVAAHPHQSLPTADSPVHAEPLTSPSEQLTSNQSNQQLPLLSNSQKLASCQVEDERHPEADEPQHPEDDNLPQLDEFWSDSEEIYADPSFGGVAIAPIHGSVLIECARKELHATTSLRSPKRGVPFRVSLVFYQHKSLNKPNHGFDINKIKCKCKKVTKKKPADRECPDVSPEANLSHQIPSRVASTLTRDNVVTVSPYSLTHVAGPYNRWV
UniProt P56546: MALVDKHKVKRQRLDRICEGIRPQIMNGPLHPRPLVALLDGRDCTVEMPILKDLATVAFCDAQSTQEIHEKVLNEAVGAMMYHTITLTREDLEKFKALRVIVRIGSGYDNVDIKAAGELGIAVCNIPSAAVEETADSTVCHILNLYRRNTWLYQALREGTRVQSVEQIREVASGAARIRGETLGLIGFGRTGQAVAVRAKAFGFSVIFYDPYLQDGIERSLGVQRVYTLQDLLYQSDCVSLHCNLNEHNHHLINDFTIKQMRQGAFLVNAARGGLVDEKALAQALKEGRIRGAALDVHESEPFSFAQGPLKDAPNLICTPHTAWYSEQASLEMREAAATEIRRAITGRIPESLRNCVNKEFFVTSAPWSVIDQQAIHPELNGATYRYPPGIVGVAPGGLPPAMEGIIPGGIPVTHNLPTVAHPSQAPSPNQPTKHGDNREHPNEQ
UniProt Q8CHY6: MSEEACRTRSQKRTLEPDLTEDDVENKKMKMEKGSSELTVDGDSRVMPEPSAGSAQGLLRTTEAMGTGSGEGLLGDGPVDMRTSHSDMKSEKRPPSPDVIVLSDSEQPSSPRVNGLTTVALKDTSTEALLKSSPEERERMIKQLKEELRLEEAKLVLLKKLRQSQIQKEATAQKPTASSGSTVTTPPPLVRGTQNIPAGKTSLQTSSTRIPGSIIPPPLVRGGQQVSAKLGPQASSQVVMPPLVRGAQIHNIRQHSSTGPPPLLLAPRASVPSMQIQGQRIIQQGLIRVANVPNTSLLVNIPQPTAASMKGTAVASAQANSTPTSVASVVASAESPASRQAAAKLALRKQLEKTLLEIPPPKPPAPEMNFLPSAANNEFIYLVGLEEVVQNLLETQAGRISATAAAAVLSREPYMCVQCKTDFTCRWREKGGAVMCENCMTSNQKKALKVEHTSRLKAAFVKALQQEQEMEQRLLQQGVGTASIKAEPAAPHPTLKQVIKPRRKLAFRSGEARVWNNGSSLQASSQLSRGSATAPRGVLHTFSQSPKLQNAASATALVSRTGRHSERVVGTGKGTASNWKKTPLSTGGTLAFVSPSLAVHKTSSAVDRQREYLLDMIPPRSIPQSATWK
UniProt Q8VHR5: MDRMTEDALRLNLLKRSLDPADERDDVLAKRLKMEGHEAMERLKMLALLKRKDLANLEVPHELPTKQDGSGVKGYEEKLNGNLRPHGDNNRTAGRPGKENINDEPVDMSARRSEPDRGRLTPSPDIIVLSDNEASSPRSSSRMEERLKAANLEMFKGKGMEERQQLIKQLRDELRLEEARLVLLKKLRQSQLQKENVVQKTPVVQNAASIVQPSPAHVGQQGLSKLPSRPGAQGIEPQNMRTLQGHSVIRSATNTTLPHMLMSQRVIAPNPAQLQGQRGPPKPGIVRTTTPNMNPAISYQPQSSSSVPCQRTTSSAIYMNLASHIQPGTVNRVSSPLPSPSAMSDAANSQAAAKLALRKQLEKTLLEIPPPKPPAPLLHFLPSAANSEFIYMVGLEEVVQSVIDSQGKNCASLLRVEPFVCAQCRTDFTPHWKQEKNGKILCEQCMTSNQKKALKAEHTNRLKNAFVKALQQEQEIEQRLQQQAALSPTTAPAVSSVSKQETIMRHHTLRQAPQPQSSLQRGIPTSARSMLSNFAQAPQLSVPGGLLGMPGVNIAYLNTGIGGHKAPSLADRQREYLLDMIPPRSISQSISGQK
UniProt Q9R190: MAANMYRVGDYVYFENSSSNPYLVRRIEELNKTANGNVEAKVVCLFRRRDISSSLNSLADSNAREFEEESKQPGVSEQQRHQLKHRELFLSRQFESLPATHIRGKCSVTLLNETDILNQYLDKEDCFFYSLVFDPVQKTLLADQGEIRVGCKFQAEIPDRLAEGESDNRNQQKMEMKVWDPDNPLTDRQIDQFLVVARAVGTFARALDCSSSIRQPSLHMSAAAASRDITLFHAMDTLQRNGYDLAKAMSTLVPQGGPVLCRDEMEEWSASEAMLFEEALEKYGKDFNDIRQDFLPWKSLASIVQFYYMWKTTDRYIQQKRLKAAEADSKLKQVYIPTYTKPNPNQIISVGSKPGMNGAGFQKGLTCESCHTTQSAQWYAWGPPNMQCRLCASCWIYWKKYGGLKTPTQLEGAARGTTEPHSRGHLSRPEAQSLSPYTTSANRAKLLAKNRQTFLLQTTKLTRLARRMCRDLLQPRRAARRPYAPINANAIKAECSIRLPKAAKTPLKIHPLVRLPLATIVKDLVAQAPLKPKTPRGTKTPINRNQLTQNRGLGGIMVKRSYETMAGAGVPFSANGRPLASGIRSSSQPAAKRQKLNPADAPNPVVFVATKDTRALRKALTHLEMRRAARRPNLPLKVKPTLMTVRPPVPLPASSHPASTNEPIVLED
UniProt P11103: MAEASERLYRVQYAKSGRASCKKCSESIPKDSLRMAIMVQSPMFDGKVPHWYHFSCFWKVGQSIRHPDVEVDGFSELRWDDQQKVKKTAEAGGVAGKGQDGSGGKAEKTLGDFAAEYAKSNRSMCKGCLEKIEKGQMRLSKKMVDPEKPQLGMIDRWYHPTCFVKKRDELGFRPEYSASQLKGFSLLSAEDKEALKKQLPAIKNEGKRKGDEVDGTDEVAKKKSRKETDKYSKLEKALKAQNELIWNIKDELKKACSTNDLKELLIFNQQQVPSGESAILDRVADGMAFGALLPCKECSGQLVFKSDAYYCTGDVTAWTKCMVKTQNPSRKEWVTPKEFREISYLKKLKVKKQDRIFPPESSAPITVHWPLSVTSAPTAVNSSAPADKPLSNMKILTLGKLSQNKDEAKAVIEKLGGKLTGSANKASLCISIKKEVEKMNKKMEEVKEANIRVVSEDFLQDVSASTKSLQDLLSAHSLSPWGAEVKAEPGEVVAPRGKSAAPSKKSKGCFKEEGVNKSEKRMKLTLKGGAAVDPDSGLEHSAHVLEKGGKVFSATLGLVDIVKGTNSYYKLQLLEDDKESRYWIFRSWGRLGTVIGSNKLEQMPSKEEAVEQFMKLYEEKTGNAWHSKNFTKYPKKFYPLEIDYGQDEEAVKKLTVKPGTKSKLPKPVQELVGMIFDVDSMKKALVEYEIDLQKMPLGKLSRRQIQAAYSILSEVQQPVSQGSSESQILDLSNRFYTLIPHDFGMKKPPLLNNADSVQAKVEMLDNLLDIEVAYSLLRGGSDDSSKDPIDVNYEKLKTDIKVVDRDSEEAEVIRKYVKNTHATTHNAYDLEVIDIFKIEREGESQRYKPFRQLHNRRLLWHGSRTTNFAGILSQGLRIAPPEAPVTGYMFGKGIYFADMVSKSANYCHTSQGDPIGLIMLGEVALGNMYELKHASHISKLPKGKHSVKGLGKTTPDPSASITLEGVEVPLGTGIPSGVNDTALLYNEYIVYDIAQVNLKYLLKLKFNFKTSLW

B1: ZNF219 (endogenous, mouse ESCs) (protein, UniProt Q6IQX8 1-726)
chain: MEGSRPRILVGHLEPSPPAFDGELDLQRYSNGPGVSGTPGPGSPGMGAVGWSETRAGERRFPCPVCGKRFRFNSILALHLRAHPGAQAFQCPHCGHRAAQRALLRSHLRTHQPERPRSPAARLLLELEERALLREARLGRARSSGGMQSSPAAEGLARPQVPSSSAFRCPFCKGKFRTSAERERHLHILHRPWKCSLCSFGSSQEEELLHHSLTAHGASERPLAATSTPEPPPPPQQEPRSALEPEPEPEPRPEPDREANPAPTPAPPEEPPAPPEFRCQVCGQSFTQSWFLKGHMRKHKASFDHACPVCGRCFKEPWFLKNHMKVHTSKLGPLRAPGPGSAPARAPQPPDLSLLAYEPLGPALLLAPAPAPAERREPPSLLGYLSVRAGEVRPNGEGADPGGGRSYGGFRPLPSALPNRARRHRTEEPEEEEEVVEAEEESWARGRSLGSLTSLHPNPGEGSGQPAPAAGTQARSTATQEENGLLVGGTRSEAGRGATGKDCPFCGKSFRSAHHLKVHLRVHTGERPYKCPHCDYAGTQSGSLKYHLQRHHREQRSSAGPGPPPEPPPPSQRGSLQPQSGAKPTQASATWVEGTASTRPPSSSTGPGSRRKPASPGRTLRNGRGGEAEPLDLSLRAGPGGEAGAGGALHRCLFCPFATGAPELMALHLQVHHSRRARGRRQPRADTSPTYVRAPSGETPPSPPLEEEGSPGLSRSGEAGLGGQER
B2: SUDS3 (endogenous, mouse ESCs) (protein, UniProt Q8BR65 1-328)
chain: MSAAGLLAPAPAPAAAPAAPEYYPEDEEELESAEDDERSCRGRESDEDTEDASETDLAKHDEEDYVEMKEQMYQDKLASLKRQLQQLQEGTLQEYQKRMKKLDQQYRERIRNAELFLQLETEQVERNYIKEKKAAVKEFEDKKVELKENLIAELEEKKKMIENEKLTMELTGDSMEVKPIMTRKLRRRPNDPVPIPDKRRKPAPAQLNYLLTDEQIMEDLRTLNKLKSPKRPASPSSPEHLPATPAESPAQRFEARIEDGKLYYDKRWYHKSQAIYLESKDNQKLSCVISSVGANEIWVRKTSDSTKMRIYVGQLQRGLFVIRRRSAA
B3: ZMYM2 (endogenous, mouse ESCs) (protein, UniProt Q9CU65 1-1376)
chain: MDTSSVGTLELTDQTPVLLGSTAMATSLTNVGNSFSGPPNPLVSRSSKFQNSSVEDDDDVVFIEPVQPPPSSAPLVADQRPITFTSSKNEELQGNDPKILPSSKELAPQKGSVSETIVIDDEEDMETNQGQEKSSSNFIERRPSETKNRTNDVDFSSSTFSRSKVNAGVSNSGITTEPDSEIQIANVTTLETGVSSVSDGQLESTDGRDMNLMITHVTSLHNTSLGDGSNGLQSSNFGVNIQTYTPSLTSQTKAGVGPFNPGRMNVAGDVFQNGESAPHHNPDSWISQSASFPRNQKQQGVDSLSPVASLPKQIFQPSNQQPTKPVKVTCANCKKPLQKGQTAYQRKGSAHLFCSTTCLSSFSHKPAPKKLCVMCKKDITTMKGTIVAQVDSSESFQEFCSTSCLSLYEDKQSPAKGALNKSRCTICGKLTEIRHEVSFKNMTHKLCSDHCFNRYRMANGLIMNCCEQCGEYLPSKGAGNNVLVVDGQQKRFCCQSCVTEYKQVGSHPSFLKEVRDHMQDSFLMQPEKYGKLTTCTGCRTQCRFFDMTQCIGPNGYMEPYCSTACMNSHKTKYAKSQSLGIICHFCKRNSLPQYQATMPDGKLYNFCNSSCVAKFQALSMQSSPNGQFVAPSDIQLKCNYCKNSFCSKPEILEWENKVHQFCSKTCSDDYKKLHCIVTYCEYCQEEKTLHETVNFSGVKRPFCSEGCKLLYKQDFARRLGLRCVTCNYCSQLCKKGATKELDGVVRDFCSEDCCKKFQEWYYKAARCDCCKSQGTLKERVQWRGEMKHFCDQHCLLRFYCQQNEPNMTTQKGPENLHYDQGCQTSRTKMTGSAPPPSPTPNKEMKNKAILCKPLTMTKATYCKPHMQTKSCQTDENWKTEYVPVPIPVPVYVPVPMHMYSQNIPVPTTVPVPVPVPVFLPAPLDSSEKIPATVEDLKSKVSSDPLDSELLTMTDMMTEEEGKAEASNINSVIIETDIIGSDLTKNSDPDIQSNMPDVPYEPDLDIEIDFPRAAEELDMENEFLLPPVFGEEYEEQPRPRSKKKGTKRKAVSGYQSHDDSSDNSECSFPFKYTYGVNAWKHWVKTRQLDEDLLVLDELKSSKSVKLKEDLLSHTTAELNYGLAHFVNEIRRPNGENYAPDSIYYLCLGIQEYLCGSNRKDNIFIDPGYQMFEQELNKILRSWQPSILPDGSIFSRVEEDYLWRIKQLGSHSPVALLNTLFYFNTKYFGLKTVEQHLRLSFGTVFRHWKKNPLTMENKACLRYQVSSLCGTDNEDKIATGKRKHEDDEPVFEQVENTANPSRCPVKMFECYLSKSPQNLNQRMDVFYLQPECSSSTDSPVWYTSTSLDRNTLENMLVRVLLVKDIYDKDNYELDEDTD
B4: MIDEAS (endogenous, mouse ESCs) (protein, UniProt E9Q2I4 1-1089)
chain: MNLQAQSKAQSKRKRCPFGDQEPAAKEQPPPLQSPPQSLRAKEEQYGAHEGPTGVASTTQPVELSPPNNLALLNSVVYGSERTTAAMLSQQAQVSSVKWPSSVMAPGRGLERGGGGGISDSGWQQQPGQPPPHSTWNHLPLYGGPKGSPHPGVGVPPYYNHPEALKGNKPGGPQLDHYGNAVQPMVPQKVQLEVGRPQAPLNSFHAAKKPPNQTLPLQPFQLAFGHQVNRQVFRQGPQPSNPTASFPPQKQQQQQQPAALPQMQLFENYYPMHQLPSQQHQDFGLAPGGPLGQTHLAHRSMAPYPFSHNPDMNPELRKALLQDPASQPVLPQPQMAFPRRSRRLSKEGILPSNSLDGAGTQPGQEPASNLFLHHWSLPQPPPGTLGQPHSEALGFPLELRESQMLADGDRLAPNGREREPPAMGNEEVMRAGGLGDCGQMIRSGVIQSTKRRRRVSQEANLLTLAQKAVELASMQDANGSEEKRKSVLATTSRCGVEFSEPALAAKRAREESGMVPLIIPVSVPVRTVGPTEVAQVGGADEDGTGLEQYPTEHKPSVIVTRRRSTRVPGTDAAAQAEDLNVKLEGEPSMRKPKQRPRPEPLIIPTKAGTFIAPPVYSNITPYQSHLRSPVRLADHPSERSFEPPPYTPPPILSPVREGSGLYFNAIISTSNIPAPPPITPKSAHRTLLRSNSSEVTPPVLSVMGEATPVSIEPRINVGTRFQAEIPMMRDRALAAFDPHKADLVWQPWEHLESSWEKQRQVDDLLTAACSSIFPGAGTNQELALHYLHESRGDILEALNKLLLRKPLRPHNHPLATYHYTGSDQWKTAERKLFNKGIAIYKKDFFLVQKLIQTKTVAQCVEFYYTYKKQVKIGRNGTLTFGDLDIGDEKSGQEEVEVDVKTSQKFPRVPPPRRESPSEERLEPKREVTEPRKEGEEEVPDTQEKGEQEEGRERCRRAAAVKATQTLQANEAANDVLILRSHEPNAPGSAGIQTSEKPREGPGKSRRALPFTEKKKKAEAFNKTQNQENTFPCKKCGRVFYKVKSRSAHMKSHAEQEKKAAALRLKEKEAAAAAAHQQALREESGEGEKG
B5: TRERF1 (endogenous, mouse ESCs) (protein, UniProt Q8BXJ2 1-1205)
chain: MGDQQLYKTNHVGHGGENLFYQQPPLGVHSGLGHSYGNTISGAGMDAPQASPISPHFPQDTRDGLGLPIGSKNLGQMDTSRQGGWGSHAGPGNHVQLRSNLANSNMMWGTPTQVEPADGYQYTYSQASEIRTQKLTSGVLHKLDSFTQVFANQNLRIQVNNMAQVLHTQSAVMDGASDSALRQLLSQKPVEPSASAIASRYQQVPQQPHPGFTGGLPKPALPVGQHAPQGHLYYDYQQPLAQMSMQGGQPLQAPQVLSGHMQQLQQHQYYPQPPPQQQQAGLQRISVQEMQQQQQPQQIRPSPPQQQQQLQLQQRQSSLQIPQYYQPQPMMQHLQEQQQPSMHLQPPSYHRDPHQYTPEQAHAVQLIQLGSMPQYYYQEPQQAYSHPLYPQSHLSQHQQREDGQLKTYSSDRQTPAMLSSHGDMGTSDTGVADPASSEMTRVTSTLPHQPLLSPSGIHLNNMGSQHQQPPSPSAMWPQMHLPDGRAQSGSPESSSGQTKGVFGEQFDAKNKLTCSICLKEFKSLPALNGHMRSHGGMRASPSLKQEEGEKAPPPQPQPQPQPQQPLPPPPPPPPPPQLPPEAERLTPMVMPVSVPVKLIPPKPSSQGFTNSVAATPAARDKPASSMSDDEMPVLEIPRKHPPIAAKVEEPLKNLPEKKKFRHRPEPLFIPPPPSSYTPNPTSYSGATLYQSQLRSPRILGDHLLLDPAHELPPYTPPPMLSPVRQGSGLFSNVLISGHGPGVHPQLPLTPLTPTPRVLLCRSSSIDGSNVTVTPGPGEQTVDVEPRINIGLRFQAEIPELQDVSALAQDTHRATLVWKPWPELENQALQQQVENLLNLCCSSALPGGGTNSEFALHSLFEAKGDVMATLEMLLLRKPVRLKCHPLANYHYAGSDKWTSLERKLFNKALATYSKDFIFVQKMVKSKTVAQCVEYYYTWKKIMRLGRKHRTRLAEIIDDCMTSEEEEEAEEEEEDPEEDRKSIKEEESEVAKSPEPPPAPALAPTEGPPMQAVGQQPSGNFICEMPNCGAVFSSRQALNGHARIHGGTNQVAKTRGAIPSGKQKPGGTQSGYCSVKSSPSHSTTSGETDPTTIFPCKECGKVFFKIKSRNAHMKTHRQQEEQQRQKAQKAAFAAEMAATIERTTGPVGAPELLPLDQLSLMKPVKDVDILDDDVVQQLGVMDEAEVVGTDLLLDDQDSVLLQGDTEL
B6: SAP30 (endogenous, mouse ESCs) (protein, UniProt O88574 1-220)
chain: MNGFTPEEMSRGGDAAAAVAAVVAAAAAAASAGNGNAAGGGAEVPGAGAVSASGPPGAAGPGPGQLCCLREDGERCGRAAGNASFSKRIQKSISQKKVKIELDKSARHLYICDYHKNLIQSVRNRRKRKGSDDDGGDSPVQDIDTPEVDLYQLQVNTLRRYKRHFKLPTRPGLNKAQLVEIVGCHFKSIPVNEKDTLTCFIYSVRNDKNKSDLKADSGVH

Each molecule was assayed against HDAC1-Flag (wild type), stably expressed in Hdac1/2 double knockout mouse ESCs (UniProt Q13547) (assay: affinity purification with mass spectrometry; Flag IP (anti-Flag on Protein G Dynabeads) of HDAC1-Flag WT, Y48E or E63R from extracts of Hdac1/2 DKO mouse ESCs 5 days after OHT; coIP buffer 250 mM NaCl, 20 mM Tris-HCl pH 7.5, 0.5% IGEPAL, 1 mM EDTA; 4°C overnight; LC-MS/MS; control DKO cells lacking a Flag epitope).

binding, binds:
MTA1 (endogenous, mouse ESCs) (from UniProt Q8K4B0 1-715)
TET1 (endogenous, mouse ESCs) (from UniProt Q3URK3 1-2039)
EHMT2 (KMT1C/G9A) (endogenous, mouse ESCs) (from UniProt Q9Z148 1-1263)
CTBP2 (endogenous, mouse ESCs) (from UniProt P56546 1-445)
GATA2A (endogenous, mouse ESCs) (from UniProt Q8CHY6 1-629)
MTA3 (endogenous, mouse ESCs) (from UniProt Q924K8 1-591)
GATA2B (endogenous, mouse ESCs) (from UniProt Q8VHR5 1-594)
MTA2 (endogenous, mouse ESCs) (from UniProt Q9R190 1-668)
PARP1 (endogenous, mouse ESCs) (from UniProt P11103 1-1013)
B1
B2
B3
B4
B5
B6

These are yes or no findings as the source states them, for the method shown. Binding seen in cells or lysates may run through a third protein. These calls come from enrichment with a bait or labelling near it, and not all partners need be listed.
